In paper PMC10183829, “Shuffled ATG8 interacting motifs form an ancestral bridge between UFMylation and autophagy” (The EMBO Journal, 2023):
These are yes or no findings as the source states them, for the method shown. Binding calls can cover weak binding; strength is not graded here. Values belong to the binder of their own block, whether it stands above or below them.

By UniProt entry, the sequences of proteins in these tests, tags left out. Where a name states a change or a piece, a line headed by the entry shows the natural chain unless it says otherwise.
UniProt Q9FG23: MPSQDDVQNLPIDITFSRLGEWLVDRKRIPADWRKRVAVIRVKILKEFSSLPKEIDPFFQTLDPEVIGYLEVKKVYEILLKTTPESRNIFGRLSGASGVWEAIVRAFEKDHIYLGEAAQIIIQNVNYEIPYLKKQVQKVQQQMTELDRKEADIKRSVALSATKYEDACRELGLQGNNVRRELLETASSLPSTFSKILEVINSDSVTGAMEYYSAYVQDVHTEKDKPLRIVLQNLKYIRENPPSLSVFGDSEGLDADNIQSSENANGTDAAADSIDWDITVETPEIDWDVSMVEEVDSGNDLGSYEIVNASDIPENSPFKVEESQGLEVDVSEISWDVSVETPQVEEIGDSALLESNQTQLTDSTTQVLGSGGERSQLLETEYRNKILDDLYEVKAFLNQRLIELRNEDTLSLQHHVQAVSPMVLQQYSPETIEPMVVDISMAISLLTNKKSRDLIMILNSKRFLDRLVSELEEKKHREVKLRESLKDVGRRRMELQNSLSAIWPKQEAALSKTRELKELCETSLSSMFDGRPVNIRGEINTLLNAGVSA

Tests used:
[1] = target: AtUFM1 (purified) (Arabidopsis thaliana); test: NMR titration; unlabeled protein or peptide (50-300 μM) added to 100 μM 15N-labeled protein; 1H-15N HSQC, 25°C, 50 mM sodium phosphate pH 7.0, 100 mM NaCl, 10% D2O; both purified
[2] = target: AtC53 IDR (264-341) (Arabidopsis thaliana) (UniProt Q9FG23); test: as above

binding [1]: binds
B1: AtUBA5 LIR peptide (peptide)
peptide: GPLHDDNEWNISVVDD

binding [2]: binds
B2: ATG8A (purified) (protein, UniProt Q8LEM4 1-117)
chain: MAKSSFKISNPLEARMSESSRIREKYPDRIPVIVEKAGQSDVPDIDKKKYLVPADLTVGQFVYVVRKRIKLGAEKAIFVFVKNTLPPTAALMSAIYEEHKDEDGFLYMTYSGENTFG
